Measurements reported in patent publication US20150272939A1, “Identification of Small Molecule Inhibitors of Jumonji AT-Rich Interactive Domain 1A (JARID1A) and 1B (JARID1B) Histone Demethylase” (Yale University, priority 2012, published 2015).
Where a name gives a salt, the structure may show the parent alone.

The chains behind the UniProt entries cited, without tags or fusion partners. Where a name states a change or a piece, a line headed by the entry shows the natural chain unless it says otherwise.
UniProt Q9UGL1: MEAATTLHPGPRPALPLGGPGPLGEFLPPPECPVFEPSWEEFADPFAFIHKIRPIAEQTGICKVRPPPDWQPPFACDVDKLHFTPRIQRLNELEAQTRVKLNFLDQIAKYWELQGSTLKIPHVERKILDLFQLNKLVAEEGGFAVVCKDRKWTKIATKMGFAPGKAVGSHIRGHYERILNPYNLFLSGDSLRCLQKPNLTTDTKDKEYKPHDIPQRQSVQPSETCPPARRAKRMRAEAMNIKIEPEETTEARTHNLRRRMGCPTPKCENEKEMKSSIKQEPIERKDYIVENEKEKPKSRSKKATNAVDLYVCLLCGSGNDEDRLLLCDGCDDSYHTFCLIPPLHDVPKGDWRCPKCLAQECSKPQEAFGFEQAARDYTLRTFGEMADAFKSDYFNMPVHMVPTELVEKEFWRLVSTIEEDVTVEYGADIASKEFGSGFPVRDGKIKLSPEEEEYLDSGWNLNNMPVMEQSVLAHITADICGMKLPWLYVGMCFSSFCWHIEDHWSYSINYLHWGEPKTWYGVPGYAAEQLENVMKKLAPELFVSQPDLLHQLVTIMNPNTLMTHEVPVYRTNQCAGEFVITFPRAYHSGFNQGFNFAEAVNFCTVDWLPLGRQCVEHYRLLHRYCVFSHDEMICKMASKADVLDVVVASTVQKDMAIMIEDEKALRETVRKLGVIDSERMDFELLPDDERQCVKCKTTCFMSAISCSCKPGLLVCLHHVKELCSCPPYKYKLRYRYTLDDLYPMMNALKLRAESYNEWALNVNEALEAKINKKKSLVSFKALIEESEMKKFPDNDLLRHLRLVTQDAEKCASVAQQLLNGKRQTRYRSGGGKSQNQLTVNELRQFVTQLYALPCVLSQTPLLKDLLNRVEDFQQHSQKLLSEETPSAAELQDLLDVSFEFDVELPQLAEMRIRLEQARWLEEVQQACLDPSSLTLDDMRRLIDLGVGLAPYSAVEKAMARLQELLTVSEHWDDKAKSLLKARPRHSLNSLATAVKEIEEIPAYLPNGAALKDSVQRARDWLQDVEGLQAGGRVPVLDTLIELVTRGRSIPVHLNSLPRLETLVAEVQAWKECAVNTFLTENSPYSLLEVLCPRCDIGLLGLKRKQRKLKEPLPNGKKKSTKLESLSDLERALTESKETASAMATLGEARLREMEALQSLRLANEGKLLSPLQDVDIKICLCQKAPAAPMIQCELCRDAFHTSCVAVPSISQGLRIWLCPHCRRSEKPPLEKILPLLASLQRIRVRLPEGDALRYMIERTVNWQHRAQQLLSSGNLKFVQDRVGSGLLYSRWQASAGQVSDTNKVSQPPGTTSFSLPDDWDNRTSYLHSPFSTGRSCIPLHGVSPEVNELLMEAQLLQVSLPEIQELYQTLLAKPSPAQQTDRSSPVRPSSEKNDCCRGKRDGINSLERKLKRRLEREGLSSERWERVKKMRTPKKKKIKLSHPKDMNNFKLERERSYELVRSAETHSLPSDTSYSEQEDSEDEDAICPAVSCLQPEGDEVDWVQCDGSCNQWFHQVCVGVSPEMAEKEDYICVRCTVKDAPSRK

Molecular target: T1, JARID1B (Homo sapiens, UniProt Q9UGL1)
T1 construct: The FLAG tagged full length JARID1B enzyme was expressed in Sf21 insect cells using FLAG-JARID1B baculoviruses; FLAG (N); made in house; host or cells: Sf21 insect cells (baculovirus)
Assay: FLAG-JARID1B histone demethylase assay with AlphaScreen detection (HTS and dose response);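 note: FLAG-tagged JARID1B at 4 nM acting on a biotinylated H3K4me3 peptide, demethylation read by AlphaScreen luminescence, with hits checked against bio-H3K4me2 without enzyme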;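 for Assay Signal (percent): compound tested at 20 µM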;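 for Assay − Artifact Signal (percent): compound tested at 20 µM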
Assay type: biochemical

- Assay − Artifact Signal (percent) (assay signal minus artifact signal): 56.56%
- inhibition at 20 µM (high-throughput screen, compound 20 μM, standard demethylase conditions (10 μM α-KG, 50 μM Fe (II)), read-out: Inhibitory effect (percent)): 47.9%
- Assay Signal (percent) (validation of HTS actives, effect of compound in JARID1B AlphaScreen assay): 66.35%
SMILES: Cc1ccccc1C(OCCN(C)C)c1ccccc1 (stereo not drawn) [YU033938, ORPHENADRINE CITRATE, reference compound]
